{
  "sequences": {"note": "Amino acid sequences for entries named in this document (tags omitted). A change or cut given only in a name is not applied to a line headed by its entry.", "UniProt P08648": "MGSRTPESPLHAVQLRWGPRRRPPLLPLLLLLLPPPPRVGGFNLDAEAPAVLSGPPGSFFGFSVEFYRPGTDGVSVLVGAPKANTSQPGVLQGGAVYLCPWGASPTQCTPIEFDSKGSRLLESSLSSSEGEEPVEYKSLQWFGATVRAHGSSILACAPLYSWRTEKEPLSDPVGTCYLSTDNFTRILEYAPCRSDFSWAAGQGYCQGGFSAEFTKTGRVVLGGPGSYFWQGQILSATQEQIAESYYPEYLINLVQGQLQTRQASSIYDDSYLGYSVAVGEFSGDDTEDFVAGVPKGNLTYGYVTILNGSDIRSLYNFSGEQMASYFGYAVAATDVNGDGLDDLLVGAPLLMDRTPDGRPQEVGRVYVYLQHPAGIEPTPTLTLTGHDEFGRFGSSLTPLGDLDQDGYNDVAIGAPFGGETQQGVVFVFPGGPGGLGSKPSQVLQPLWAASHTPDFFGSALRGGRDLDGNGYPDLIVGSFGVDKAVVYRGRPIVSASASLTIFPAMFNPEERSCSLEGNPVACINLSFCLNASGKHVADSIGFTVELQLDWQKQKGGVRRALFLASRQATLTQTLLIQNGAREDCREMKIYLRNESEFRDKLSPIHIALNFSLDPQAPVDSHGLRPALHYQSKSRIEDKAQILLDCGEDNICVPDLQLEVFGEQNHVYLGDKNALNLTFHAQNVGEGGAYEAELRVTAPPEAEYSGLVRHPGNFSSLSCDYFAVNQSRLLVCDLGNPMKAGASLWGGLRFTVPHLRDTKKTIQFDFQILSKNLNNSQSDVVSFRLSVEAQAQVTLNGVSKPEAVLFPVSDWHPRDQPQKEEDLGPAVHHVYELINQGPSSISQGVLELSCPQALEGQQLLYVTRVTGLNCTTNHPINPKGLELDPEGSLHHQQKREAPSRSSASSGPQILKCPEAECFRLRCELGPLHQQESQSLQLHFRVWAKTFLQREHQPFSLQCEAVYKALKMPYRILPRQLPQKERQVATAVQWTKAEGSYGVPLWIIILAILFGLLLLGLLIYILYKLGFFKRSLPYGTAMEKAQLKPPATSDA", "UniProt P05556": "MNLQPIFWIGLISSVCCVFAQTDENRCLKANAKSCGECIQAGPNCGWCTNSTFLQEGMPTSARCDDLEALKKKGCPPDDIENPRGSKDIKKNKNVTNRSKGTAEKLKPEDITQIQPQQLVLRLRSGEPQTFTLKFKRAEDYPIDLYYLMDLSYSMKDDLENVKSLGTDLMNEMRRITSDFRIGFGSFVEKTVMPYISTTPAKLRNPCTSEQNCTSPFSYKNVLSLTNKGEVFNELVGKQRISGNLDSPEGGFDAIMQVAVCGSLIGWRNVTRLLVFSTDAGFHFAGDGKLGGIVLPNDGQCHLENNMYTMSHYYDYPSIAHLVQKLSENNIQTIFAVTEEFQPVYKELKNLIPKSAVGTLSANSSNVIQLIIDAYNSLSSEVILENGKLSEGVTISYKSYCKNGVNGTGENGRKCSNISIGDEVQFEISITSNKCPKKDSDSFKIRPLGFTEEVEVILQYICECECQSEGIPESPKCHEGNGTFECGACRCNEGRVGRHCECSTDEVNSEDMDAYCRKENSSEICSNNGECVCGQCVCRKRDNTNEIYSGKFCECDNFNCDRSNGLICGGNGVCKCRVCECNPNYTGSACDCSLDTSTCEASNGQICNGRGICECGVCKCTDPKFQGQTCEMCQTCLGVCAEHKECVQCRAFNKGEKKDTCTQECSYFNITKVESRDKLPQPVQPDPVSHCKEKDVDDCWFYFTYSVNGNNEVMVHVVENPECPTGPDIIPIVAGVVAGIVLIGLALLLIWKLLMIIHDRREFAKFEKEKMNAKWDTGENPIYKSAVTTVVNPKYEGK"},
  "source": "patent US20150203581A1",
  "binders": {"B1": {"name": "h18C12.v3 (Fab, V domains shown)", "VH": "EVQLVESGGGLVQPGGSLRLSCAASGFTFSNRWIYWVRQAPGKGLEWVGGIKTKPNIYATEYADSVKGRFTISRDDSKNTLYLQMNSLRAEDTAVYYCARLTGMRYFDYWGQGT", "VL": "EPVLTQSPSASASLGASVKLTCTLSSQHSTYTIGWYQQQPGKAPRYLMYLNSDGSHNKGDGIPDRFSGSSSGADRYLTISNLQSEDEADYYCGSSYSSGYVFGGGT"}, "B2": {"name": "h18C12.v6 (Fab, V domains shown)", "VH": "B1 VH with R105K", "VL": "B1 VL with G93A, S94A, S95Y, S97A, S98Y"}},
  "target": "recombinant human integrin α5β1 (human) (UniProt P08648+P05556)",
  "assay": "phage competition ELISA, Fab on phage",
  "note": "Numbering of substitutions follows the chain as printed. These are yes or no findings as the source states them, for the method shown. Some results given as binding are weak or reduced against the parent protein; the word gives no strength.",
  "data": [
    {"binder": "B1", "values": [
      {"measurement": "binding", "value": "binds"}
    ]},
    {"binder": "B2", "values": [
      {"measurement": "binding", "value": "binds"}
    ]}
  ]
}
